According to PMC10258837 (Journal of the American Chemical Society, 2021):

System: AnpF orthologs
Assay: amino acid-dependent ATP-PPi exchange, AnpF orthologs
Assay type: biochemical
Conditions: amino acid-dependent ATP-PPi exchange assay

N[C@@H](Cc1ccc(O)cc1)C(=O)O [L-Tyr]
A domain activation by AnpF orthologs: no activity
